# According to article PMC12040169 (PLOS Biology, 2025):
# This is one part of the list.
# Test system: T1, CTL2-GFP (C. trachomatis L2/434/Bu, GFP-expressing)
# T1 construct: L2/434/Bu, GFP-expressing
# Set-up: species or system HeLa; Intracellular C. trachomatis growth in HeLa cells, bulk GFP fluorescence relative to DMSO
# Conditions: bulk GFP, single well; 28.5 h, 10 µM; inhibitor
row,SMILES,% of control remaining
1,CCCC/C=C/c1cnc2[nH]c(=O)n(Cc3cccs3)c2n1 [CBK064373],166.045%
2,Cc1c(C(=O)N(C)Cc2csc(Br)c2)nnn1C1CCNCC1 [CBK304491],112.651%
3,O=C(CS(=O)(=O)c1ccccc1)N1CCN2C(=O)N(C3CCCCC3)C(=O)[C@H]2C1 [CBK289580],105.943%
4,O=c1cc(CO)oc(CN2CCCCCC2)c1O [CBK288363],128.759%
5,O=C(N[C@H]1C[C@@H]2C(=O)N[C@H]3CCN(C(=O)Cc4cccs4)[C@@H]3C(=O)N2C1)C1CCC1 [CBK289269],92.6101%
6,C[N+](C)(C)CCC(=O)CCC(=O)O [CBK262012I],100%
7,COc1ccc(NC(=O)C(C)Sc2nc(N)cc(O)n2)cc1 (stereo not shown) [CBK265699],122.24%
8,Cc1sc(NC(=S)NC(=O)COc2ccc(Br)cc2Cl)c(C(N)=O)c1C [CBK266127],150.835%
9,COc1ccccc1CC(C)NC(=O)CC1CCN(c2nc(C)cc(C)n2)CC1 (stereo not shown) [CBK285956],109.826%
10,Cc1[nH]c(=O)[nH]c(=O)c1CC(=O)NCC1CCN(c2ccccc2F)C1 (stereo not shown) [CBK304325],115.127%
11,COc1ccc(C(=O)N2CCC3(CCCN(CCN4C(=O)c5ccccc5C4=O)C3)C2)cc1OC (stereo not shown) [CBK132862],74.0043%
12,O=C(CSc1nnc(-c2ccncc2)[nH]1)c1ccc(O)c(O)c1 [CBK264346],117.954%
13,O=C(O)c1ccc2c(c1)C(=O)N(c1cccnc1)C2=O [CBK287173],111.051%
14,Cc1cc(-c2cn3cc(C(=O)N4CCCCC4)nc3c(=O)n2C)c(C)o1 [CBK306890],183.353%
15,CCOc1cc(NC2CCN(C(=O)C3CCCCC3(C)C)CC2)ncn1 (stereo not shown) [CBK305505],80.0952%
16,O=C(Nc1ccc(OC(F)(F)F)cc1)Nc1cc(-c2cccs2)n[nH]1 [CBK020563],16.102%
17,Nc1ccc(-c2nc3cc(C(=O)c4ccc5[nH]c(-c6ccc(N)cc6)nc5c4)ccc3[nH]2)cc1 [CBK262848],105.733%
18,O=S(=O)(NC1CCN(Cc2ccccc2)CC1)c1ccc(-c2ccon2)s1 [CBK062038],130.965%
19,COc1ccc(C(=O)N[C@H]2C[C@H]3C(=O)Nc4ccccc4C(=O)N3C2)cc1 [CBK289355],127.573%
20,CC(C)[C@@H](CO)Nc1nc(-c2ccccc2Cl)cn2ccnc12 [CBK037368],134.008%
21,COc1ccc(-c2cnc(NS(C)(=O)=O)c(C(=O)Nc3cc(C)nn3C)c2)cc1 [CBK076528],119.485%
22,Cn1c(CCNC(=O)C2CCCCC2)nc2cc([N+](=O)[O-])ccc21 [CBK268440],113.961%
23,C=CCN1C(=O)CC2(C1=O)C(=O)N(CCCn1c(=O)n(C)c3ccccc31)c1ccc(Cl)cc12 (stereo not shown) [CBK075411],144.276%
24,CCN(CC)C(=O)CN1CCN(c2nccnc2Oc2ccc(F)cc2)CC1 [CBK083020T],125.728%
25,COc1ccc(OC[C@@H](N)C(C)C)cc1 [CBK284299],147.86%
26,Cc1ccc(C(=O)Nc2ccccc2C(=O)O)cc1S(=O)(=O)NCc1ccccc1 [CBK263212],123.381%

row,SMILES,% of control remaining
1,CCc1ccc(CNC(=O)c2ccc3c(c2)NC(=O)C(N2CCOCC2)S3)cc1 (stereo not shown) [CBK071737],108.283%
2,c1ccc(-c2nccnc2NCc2ccco2)cc1 [CBK088642],146.605%
3,CCN(CC)C(=O)CN1CCN(c2nccnc2OCCN2C(=O)CCC2=O)CC1 [CBK084297],102.056%
4,O=C(Nc1cc2ccccc2c(N2CCNCC2)n1)c1ccccc1 [CBK028423T],117.805%
5,COc1ccc2[nH]c(CN3CCCC(c4nc(C)n[nH]4)C3)c(C)c2c1 (stereo not shown) [CBK306904],129.78%
6,CC1CCc2nc(NC(=O)Cn3cccc(C(=O)Nc4ccc(F)cc4)c3=O)sc2C1 (stereo not shown) [CBK286063],116.821%
7,Cc1nc(CN2CCC(C(=O)c3ccc(F)cc3)CC2)cs1 [CBK149147],128.772%
8,C[C@@H](c1ccccc1)n1c(=O)[nH]c2ncc(-c3ccco3)nc21 [CBK064168],158.507%
9,O=C(O)c1cc(S(=O)(=O)Nc2ccc3cc(Br)cnc3n2)c(F)cc1Cl [CBK073898],118.236%
10,Cc1ccc(C(=O)N[C@@H]2C[C@H](C)CC[C@H]2C(C)C)cc1C [CBK085823],94.9035%
11,Nc1cccc2c(OCCO)cccc12 [CBK001976C],17.4482%
12,Cc1cc(Br)ccc1NC(=O)c1cnc2sccn2c1=O [CBK246520],108.351%
13,CC[C@H]1CN(C(=O)c2ccnc(Cl)c2)CC[C@H]1CC(=O)O [CBK289139],139.528%
14,CCOCC(=O)N(C)C1CCN(c2ncnc3ccccc23)CC1 [CBK306247],113.555%
15,COc1ccc(C2CC(Cn3cc(C(C)=O)c(=O)[nH]c3=O)ON2C)cc1 (stereo not shown) [CBK019386],90.4302%
16,COc1ccc(CNC(=O)C2CCCN(c3nc4c(-c5ccccc5)csc4c(=O)[nH]3)C2)cc1 (stereo not shown) [CBK215464],140.379%
17,Cc1c(C(=O)O)sc2nc(C=Cc3cc([N+](=O)[O-])ccc3Cl)[nH]c(=O)c12 [CBK295613],128.06%
18,O=C(Cc1ccccc1)Nc1ccc2[nH]ncc2c1 [CBK288211],108.755%
19,Cc1nn(CC(=O)NC(C)(C)C)c(=O)c2cc3ccsc3n12 [CBK284082],118.399%
20,O=C(CCNCCc1c[nH]c(=O)[nH]c1=O)Nc1cccc(Cl)c1 [CBK306889],125.04%
21,COc1ccccc1N(CC(=O)NC(C(C)C)C(C)C)S(=O)(=O)c1ccccc1 [CBK101384],103.422%
22,O=C(c1ccccn1)N1CCN(CCc2ccccc2)CC1 [CBK200201],138.122%
23,O=C(CCN1C(=O)/C(=C/c2ccc(F)cc2)SC1=S)NNC(=O)c1ccncc1 [CBK262821],121.536%
24,CC(=O)Nc1ccc(-c2cncc(NC(C)CCCC(C)(C)O)n2)cc1 (stereo not shown) [CBK065894],162.198%
25,COc1ccc(C(=O)N2CCC3(CCCN(CCc4c[nH]c5ccccc45)C3)C2)cc1OC (stereo not shown) [CBK137143],116.581%
26,COc1cccc(/C=C(/C#N)c2ccc(Cl)cc2)c1OCc1cccc(C(=O)O)c1 [CBK266721],139.835%

row,SMILES,% of control remaining
1,O=C(c1ccccc1)c1cccc(OCCOc2nccnc2N2CCNCC2)c1 [CBK014250G],102.466%
2,c1ccc2nc(N3CCCC3)c(OC3CCOC3)nc2c1 (stereo not shown) [CBK115769],110.725%
3,O=C(C1CN(Cc2nc3ccsc3c(=O)[nH]2)c2ccccc2O1)N1CCOCC1 (stereo not shown) [CBK295189],144.933%
4,O=C(CCCc1ccccc1)Nc1ccccc1C(=O)O [CBK265516],100%
5,COc1ccccc1-c1ccc(CC2(C(=O)NCCc3ccc(F)cc3)CCOCC2)cc1 [CBK286520],63.6414%
6,CC(c1ccccc1)c1nc2cnccn2c1NC(C)(C)C (stereo not shown) [CBK283533],110.074%
7,O=C(c1ccco1)N1CCN(c2ccc(-c3cccc(Cl)c3Cl)cn2)CC1 [CBK037737],130.359%
8,CCN1CCCC1CNS(=O)(=O)c1cc(C(N)=O)ccc1OC (stereo not shown) [CBK267815],82.1902%
9,O=C(NC1CC1)C1(Cc2ccccc2-c2cccnc2)CCOCC1 [CBK285222],120.227%
10,COc1ccc(OC)c(N(CC(=O)N2CCN(C)CC2)S(=O)(=O)c2ccccc2)c1 [CBK264131],100%
11,CCCc1cc(C(=O)NC2CCN(Cc3cccc(F)c3)CC2)[nH]n1 [CBK282465],133.203%
12,O=C(c1cccc(-c2nnc(-c3ccccc3)o2)c1)N1CCN(C(=O)c2ccco2)CC1 [CBK269809],139.133%
13,COc1ccc2[nH]c(=O)c(CNc3ccc4c(c3)-c3ccccc3S(=O)(=O)N4)cc2c1 [CBK286409],139.349%
14,CCOc1ccc(CNc2ccc(N3CCOCC3)c(C(=O)O)c2)cc1OC [CBK269192],150.438%
15,CS(=O)(=O)N(CC(=O)Nc1ccccc1C(=O)N1CCOCC1)c1ccc(F)c(Cl)c1 [CBK267931],105.114%
16,c1cncc(COc2cc(N3CCCC3)ncn2)c1 [CBK115894],100%
17,CCCOC(=O)c1c(NC(=O)c2cc(-c3ccccc3)nc3ccccc23)sc2c1CCC(C)C2 (stereo not shown) [CBK262647],100%
18,OCC1CCCN1c1cncc(-c2ccc(F)cc2F)n1 (stereo not shown) [CBK065891],108.947%
19,CCN1C(=O)N(CC)C2C1NC(=O)N2CCCC(=O)O (stereo not shown) [CBK287131],135.055%
20,Cc1nc(C)n(CC2CCCN(c3ncnc4ccsc34)C2)n1 (stereo not shown) [CBK304037],131.177%
21,COC(=O)c1c(NC(=S)Nc2ccccc2)sc(Cc2ccccc2)c1C [CBK263501],109.105%
22,COc1ccc(-c2ccc3c(c2)C(=O)N2CC[C@H](NC(=O)CCC(=O)O)[C@H]2C(=O)N3)cc1 [CBK289331],136.048%
23,O=C(O)CCCNS(=O)(=O)c1ccc(I)cc1 [CBK269160],131.806%
24,O=C(c1cc(Cl)c[nH]1)N1CCN(Cc2cc(=O)n3ccsc3n2)CC1 [CBK306313],102.158%

# Some of these compounds in order of formula weight, largest number first.
row,SMILES,% of control remaining
22,COc1ccc(-c2ccc3c(c2)C(=O)N2CC[C@H](NC(=O)CCC(=O)O)[C@H]2C(=O)N3)cc1 [CBK289331],136.048%
3,O=C(C1CN(Cc2nc3ccsc3c(=O)[nH]2)c2ccccc2O1)N1CCOCC1 (stereo not shown) [CBK295189],144.933%
1,O=C(c1ccccc1)c1cccc(OCCOc2nccnc2N2CCNCC2)c1 [CBK014250G],102.466%
15,COc1ccc(C2CC(Cn3cc(C(C)=O)c(=O)[nH]c3=O)ON2C)cc1 (stereo not shown) [CBK019386],90.4302%
